From publication doi:10.1101/657312
No constants are given. Whether binding was seen depends on the method and setting. Some binding calls cover weakened binding; strength is not graded here. Where a sequence is shown, tags or fusion partners need not be part of it.

Biological target: T1, FBF-2 (a.a. 121-632) fused to the LexA binding domain (plasmid pJK2017) (C. elegans) (UniProt Q09312)
T1 sequence: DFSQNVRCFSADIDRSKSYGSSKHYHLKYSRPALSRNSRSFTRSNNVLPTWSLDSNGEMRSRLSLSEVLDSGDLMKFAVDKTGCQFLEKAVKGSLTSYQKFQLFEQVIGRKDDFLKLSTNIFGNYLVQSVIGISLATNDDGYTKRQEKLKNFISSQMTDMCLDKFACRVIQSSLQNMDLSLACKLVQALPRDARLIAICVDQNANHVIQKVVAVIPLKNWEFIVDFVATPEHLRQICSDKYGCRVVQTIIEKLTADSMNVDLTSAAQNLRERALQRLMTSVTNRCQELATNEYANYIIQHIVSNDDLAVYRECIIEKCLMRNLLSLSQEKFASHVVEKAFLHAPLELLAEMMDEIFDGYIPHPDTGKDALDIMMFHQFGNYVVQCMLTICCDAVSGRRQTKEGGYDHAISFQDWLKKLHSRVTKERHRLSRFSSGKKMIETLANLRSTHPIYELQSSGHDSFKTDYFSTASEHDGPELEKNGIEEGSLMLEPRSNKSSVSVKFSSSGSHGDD
Assay: two-hybrid

Row | Binder | binding
1 | full length LST-1(wt) fused to the Gal4 activation domain (protein, UniProt P91820 1-328) MCSTFILPPRRNNCNKSSSTIAYSKSQHEAPKQLLQLRSEIKPLIPLNQPSNFWESSQDSGVLSSLSSSPQQRSGLRSQKLHLTYIEKNKRVRAMIPQQQHYHAFDRPTHYNSRKTSGPPPLMRTPSSGFSSASSSENMFSGLTLSDNENKIHEIMDPSVDVDLDMFLLPDCRYKQPVQPSTSTSRNNVSQISGSSRLNGSTRHVAPIVPKVAMPSELSYANVKRSSGYVDYMPTTYNSNVTSNSSAASVPMSPGTWVRCHYCWESYVKLCQRVANLEPLISCDGPWNWHTLYDMQGRVTCPRLWFAQLDRAGSEMVEQMGHARNVPV | binds
2 | LST-1(1-152) fused to the Gal4 activation domain (domain or fragment, UniProt P91820 1-152) MCSTFILPPRRNNCNKSSSTIAYSKSQHEAPKQLLQLRSEIKPLIPLNQPSNFWESSQDSGVLSSLSSSPQQRSGLRSQKLHLTYIEKNKRVRAMIPQQQHYHAFDRPTHYNSRKTSGPPPLMRTPSSGFSSASSSENMFSGLTLSDNENKI | binds
3 | LST-1(1-152) with the B motif mutated (K80A L83A), Gal4 activation domain fusion (domain or fragment, UniProt P91820 1-152) MCSTFILPPRRNNCNKSSSTIAYSKSQHEAPKQLLQLRSEIKPLIPLNQPSNFWESSQDSGVLSSLSSSPQQRSGLRSQALHATYIEKNKRVRAMIPQQQHYHAFDRPTHYNSRKTSGPPPLMRTPSSGFSSASSSENMFSGLTLSDNENKI | binds
4 | LST-1(1-152) with the A and B motifs mutated in the same fragment, Gal4 activation domain fusion (domain or fragment, UniProt P91820 1-152) MCSTFILPPRRNNCNKSSSTIAYSKSQHEAPAQLAQLRSEIKPLIPLNQPSNFWESSQDSGVLSSLSSSPQQRSGLRSQALHATYIEKNKRVRAMIPQQQHYHAFDRPTHYNSRKTSGPPPLMRTPSSGFSSASSSENMFSGLTLSDNENKI | no binding
